Substrate in this series: Nc1ncnc2c1ncn2[C@@H]1O[C@H](COP(=O)(O)OP(=O)(O)OP(=O)(O)O)[C@@H](O)[C@H]1O
The experiment in a line: purified protein. The note with it: 50 mM MOPS, 2 mM MgCl2, pH 7.5, 37 °C.

B1: F. nucleatum F1Fo-ATP synthase (purified) (Fusobacterium nucleatum subsp. nucleatum ATCC 25586) (protein)
chain 1: MNKGTITQIISAVVDIAFKDELPAIYNALKVKLEDKELVLEVEQHLGNNVVRTVAMDSTDGLKRGMEVIDTGKPITIPVGKAVLGRILNVLGEPVDNQGPLNAETFLPIHREAPEFDDLETETEIFETGIKVIDLLAPYIKGGKIGLFGGAGVGKTVLIMELINNIAKGHGGISVFAGVGERTREGRDLYGEMTESGVITKTALVYGQMNEPPGARLRVALTGLTVAENFRDKDGQDVLLFIDNIFRFTQAGSEVSALLGRIPSAVGYQPNLATEMGALQERITSTKSGSITSVQAVYVPADDLTDPAPATTFSHLDATTVLSRNIASLGIYPAVDPLDSTSKALSEDVVGKEHYEVARKVQEVLQRYKELQDIIAILGMDELSDEDKLTVSRARKIERFFSQPFSVAEQFTGMEGKYVPVKETIRGFREILEGKHDDIPEQAFLYVGTIEEAVAKSKDLAK
chain 2: MNIRPEEVSSIIKKEIDNYKKSLEIKTSGTVLEVGDGIARIFGLSNVMSGELLEFPHGVMGMALNLEEDNVGAVILGNASLIKEGDEVRATGKVVSVPAGEDLLGRVINALGDPIDGKGEIHVDKYMPIERKASGIIARQPVSEPLQTGIKSIDGMVPIGRGQRELIIGDRQTGKTAIAIDTIINQKGQDVKCIYVAIGQKRSTVAQIYKKLSDLGCMDYTIIVAATASEAAPLQYMAPYSGVAIGEYFMEKGEHVLIIYDDLSKHAVAYREMSLLLRRPPGREAYPGDVFYLHSRLLERAAKLSDELGGGSITALPIIETQAGDVSAYIPTNVISITDGQIFLESQLFNSGFRPAINAGISVSRVGGAAQIKAMKQVASKVKLELAQYTELLTFAQFGSDLDKATKAQLERGHRIMEILKQPQYHPFAVERQVVSFYIVINGHLDDIEVSKVRRFEKELLDYLKANTNILTEIADKKALDKDLEEKLKESIANFKKSFN
B1: the Km worked out at 250 µM.

For the origin of these results see paper PMC3692424, “A New Type of Na^+-Driven ATP Synthase Membrane Rotor with a Two-Carboxylate Ion-Coupling Motif” (PLoS Biology, 2013).
